Record: PubChem BioAssay AID1259405 (NCATS, 2018)
In all, the deposit lists about 50,000 reagents; this is a random part of them. In the full data, about 4,000 (8%) were called active. 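Mouse siRNA library applied to hamster cells; one well for each siRNA.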

Purpose: 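Mouse-designed siRNAs used to find CHO productivity engineering targets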 (primary screen)
Cells: Chinese hamster CHO-K1 ovary cells with stable secreted eGFP expression
Knock-down reagent: single siRNA against mouse genes, 0.8 pmol siRNA per well (2 µl of 400 nM stock)
Duration: 3 days
Detection: 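Per-well intracellular GFP measured by laser scanning cytometry, plus viability from ATP luminescence, each relative to plate median of non-targeting control wells, in %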
Reading the numbers: GFP, % of control: higher = more GFP per well, higher productivity; viability (ATP), % of control: higher = more viable cells (more ATP)
Call rule: 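a knock-down is called active if GFP reaches 120% or more of non-targeting control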

Whamm (GeneID 434204) [SID363562068] scored GFP, % of control 60.3; viability (ATP), % of control 55.7; inactive. With knock-down of Whamm (GeneID 434204) [SID363567206] the results were GFP, % of control 61.7; viability (ATP), % of control 88.2; inactive. After knock-down of Whamm (GeneID 434204) [SID363584563], the screen gave GFP, % of control 64; viability (ATP), % of control 80.7; inactive. With knock-down of Ly6g6e (GeneID 70274) [SID363562232], the screen gave GFP, % of control 51.8; viability (ATP), % of control 86.6; inactive. Knock-down of Ly6g6e (GeneID 70274) [SID363567370] gave: GFP, % of control 67.8; viability (ATP), % of control 59.3; inactive. After knock-down of Ly6g6e (GeneID 70274) [SID363584727], the screen gave GFP, % of control 99.2; viability (ATP), % of control 87.6; inactive.

Uox (GeneID 22262) [SID363544886] showed GFP, % of control 146; viability (ATP), % of control 104; active. Against Uox (GeneID 22262) [SID363551214] the deposit lists GFP, % of control 85.9; viability (ATP), % of control 63.1; inactive. After knock-down of Uox (GeneID 22262) [SID363557763] the results were GFP, % of control 59.1; viability (ATP), % of control 64.2; inactive. Acrbp (GeneID 54137) [SID363542672] gave GFP, % of control 60.9; viability (ATP), % of control 62.4; inactive. Against Acrbp (GeneID 54137) [SID363546189] the deposit lists GFP, % of control 36.2; viability (ATP), % of control 55.3; inactive. Acrbp (GeneID 54137) [SID363547945] gave GFP, % of control 72.4; viability (ATP), % of control 89.7; inactive.

Hits, among the entries above:
Uox (GeneID 22262) [SID363544886] → GFP, % of control = 146; viability (ATP), % of control = 104; activity call = active

More results:
Against Map2k7 (GeneID 26400) [SID363570711], the values are GFP, % of control 80; viability (ATP), % of control 95.9; inactive. Vps33b (GeneID 233405) [SID363547781] gave GFP, % of control 88.1; viability (ATP), % of control 72.3; inactive. With knock-down of Vps33b (GeneID 233405) [SID363558550] the results were GFP, % of control 66.8; viability (ATP), % of control 73.2; inactive. Against Vps33b (GeneID 233405) [SID363560308], the entry reads GFP, % of control 60.8; viability (ATP), % of control 88.4; inactive. Against Sox6 (GeneID 20679) [SID363541030], the entry reads GFP, % of control 42.5; viability (ATP), % of control 89.1; inactive. For Sox6 (GeneID 20679) [SID363555657] the deposit lists GFP, % of control 62.5; viability (ATP), % of control 77.7; inactive.

Depletion of Sox6 (GeneID 20679) [SID363565946] came out at: GFP, % of control 63.3; viability (ATP), % of control 74.8; inactive. Knock-down of Dnajc2 (GeneID 22791) [SID363541714] resulted in: GFP, % of control 84.6; viability (ATP), % of control 71.2; inactive. Dnajc2 (GeneID 22791) [SID363553306] gave GFP, % of control 104; viability (ATP), % of control 86.4; inactive. Dnajc2 (GeneID 22791) [SID363566630] scored GFP, % of control 76.6; viability (ATP), % of control 68.1; inactive. Against Tmem154 (GeneID 320782) [SID363542882] the deposit lists GFP, % of control 52.2; viability (ATP), % of control 48; inactive. For Tmem154 (GeneID 320782) [SID363546399] the deposit lists GFP, % of control 21.1; viability (ATP), % of control 15.2; inactive.

For Tmem154 (GeneID 320782) [SID363548155] the deposit lists GFP, % of control 66.9; viability (ATP), % of control 86.5; inactive. Wnt5a (GeneID 22418) [SID363541636] gave GFP, % of control 44.8; viability (ATP), % of control 35.5; inactive. Silencing of Wnt5a (GeneID 22418) [SID363553228] resulted in: GFP, % of control 107; viability (ATP), % of control 58.3; inactive. With knock-down of Wnt5a (GeneID 22418) [SID363566552] the results were GFP, % of control 84.2; viability (ATP), % of control 45.1; inactive.
